Source: PMC5998130

Amino acid sequences for entries named in this document (tags omitted).
UniProt Q92793: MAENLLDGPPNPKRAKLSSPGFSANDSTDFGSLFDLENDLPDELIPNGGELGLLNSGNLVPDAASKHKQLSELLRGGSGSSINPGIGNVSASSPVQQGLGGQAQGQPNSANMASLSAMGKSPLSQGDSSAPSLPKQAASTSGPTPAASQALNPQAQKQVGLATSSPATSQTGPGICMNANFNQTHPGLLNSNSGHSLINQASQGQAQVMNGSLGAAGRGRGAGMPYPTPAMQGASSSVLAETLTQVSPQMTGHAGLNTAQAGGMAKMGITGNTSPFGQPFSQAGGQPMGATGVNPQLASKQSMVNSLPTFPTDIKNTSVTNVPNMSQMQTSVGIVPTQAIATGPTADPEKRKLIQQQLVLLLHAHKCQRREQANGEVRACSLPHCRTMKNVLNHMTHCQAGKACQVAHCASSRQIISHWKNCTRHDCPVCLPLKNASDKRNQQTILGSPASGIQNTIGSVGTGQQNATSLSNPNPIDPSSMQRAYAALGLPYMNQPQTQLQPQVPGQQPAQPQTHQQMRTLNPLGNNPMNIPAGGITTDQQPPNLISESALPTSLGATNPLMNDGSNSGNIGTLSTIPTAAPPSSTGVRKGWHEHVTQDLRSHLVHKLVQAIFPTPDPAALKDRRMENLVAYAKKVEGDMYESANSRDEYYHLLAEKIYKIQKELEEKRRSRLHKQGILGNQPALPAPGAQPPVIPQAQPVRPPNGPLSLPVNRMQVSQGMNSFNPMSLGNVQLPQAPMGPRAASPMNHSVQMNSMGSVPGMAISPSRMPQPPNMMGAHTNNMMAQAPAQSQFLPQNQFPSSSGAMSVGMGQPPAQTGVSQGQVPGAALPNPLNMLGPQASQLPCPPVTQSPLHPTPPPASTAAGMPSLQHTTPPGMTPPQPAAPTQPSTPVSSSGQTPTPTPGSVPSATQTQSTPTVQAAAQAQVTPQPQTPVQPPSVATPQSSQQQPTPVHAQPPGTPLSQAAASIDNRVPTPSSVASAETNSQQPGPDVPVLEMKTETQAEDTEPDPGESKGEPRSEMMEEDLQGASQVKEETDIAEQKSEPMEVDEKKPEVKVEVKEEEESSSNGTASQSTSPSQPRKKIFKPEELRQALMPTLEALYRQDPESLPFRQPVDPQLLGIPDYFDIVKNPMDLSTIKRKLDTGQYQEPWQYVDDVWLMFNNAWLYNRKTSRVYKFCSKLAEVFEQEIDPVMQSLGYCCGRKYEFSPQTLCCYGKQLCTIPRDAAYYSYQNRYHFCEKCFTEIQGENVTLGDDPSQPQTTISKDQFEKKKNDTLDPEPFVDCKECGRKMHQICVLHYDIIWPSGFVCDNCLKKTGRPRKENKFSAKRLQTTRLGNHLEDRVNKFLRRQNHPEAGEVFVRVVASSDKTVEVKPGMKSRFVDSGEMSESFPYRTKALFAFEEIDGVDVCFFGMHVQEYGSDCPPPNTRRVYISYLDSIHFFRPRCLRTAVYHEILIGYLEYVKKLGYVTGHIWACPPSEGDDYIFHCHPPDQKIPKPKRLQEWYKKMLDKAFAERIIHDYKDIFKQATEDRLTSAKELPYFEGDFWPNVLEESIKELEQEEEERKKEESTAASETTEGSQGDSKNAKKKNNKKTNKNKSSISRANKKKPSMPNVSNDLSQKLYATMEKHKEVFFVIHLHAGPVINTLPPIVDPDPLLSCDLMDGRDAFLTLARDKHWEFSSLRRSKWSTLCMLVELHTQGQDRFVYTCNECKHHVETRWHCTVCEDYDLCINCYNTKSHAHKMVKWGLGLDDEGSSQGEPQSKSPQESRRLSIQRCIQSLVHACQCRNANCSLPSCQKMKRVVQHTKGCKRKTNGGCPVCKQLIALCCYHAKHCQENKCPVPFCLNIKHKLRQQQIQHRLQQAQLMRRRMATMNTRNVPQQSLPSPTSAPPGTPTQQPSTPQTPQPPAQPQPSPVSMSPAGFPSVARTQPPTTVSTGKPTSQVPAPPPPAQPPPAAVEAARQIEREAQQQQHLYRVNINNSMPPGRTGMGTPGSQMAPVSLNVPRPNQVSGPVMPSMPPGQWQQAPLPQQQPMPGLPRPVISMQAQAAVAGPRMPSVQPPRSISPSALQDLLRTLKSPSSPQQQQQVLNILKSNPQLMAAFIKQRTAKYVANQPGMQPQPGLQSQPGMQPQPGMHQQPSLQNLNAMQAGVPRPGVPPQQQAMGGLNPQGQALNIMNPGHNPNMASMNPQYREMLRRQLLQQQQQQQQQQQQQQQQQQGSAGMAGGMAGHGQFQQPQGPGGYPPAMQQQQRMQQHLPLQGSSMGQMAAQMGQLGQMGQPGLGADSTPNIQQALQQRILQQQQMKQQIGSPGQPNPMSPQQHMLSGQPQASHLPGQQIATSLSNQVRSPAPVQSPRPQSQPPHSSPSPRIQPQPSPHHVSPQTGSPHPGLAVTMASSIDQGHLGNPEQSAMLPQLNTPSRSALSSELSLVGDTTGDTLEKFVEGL

Legend:
[1] = target: T1, Estrogen Receptor alpha (ERα) (human (endogenous in MCF7, human PDX tumours and human breast tumours)), P03372; assay: affinity purification with mass spectrometry; qPLEX-RIME: endogenous ERα precipitated from MCF7 cells, double crosslinking (2 mM DSG then 1% FA), compared with single crosslinking; settings: remark: other sources report otherwise
[2] = target: T1, Estrogen Receptor alpha (ERα) (human …); assay: affinity purification with mass spectrometry; qPLEX-RIME: endogenous ERα precipitated from cryosections of five human breast cancer tumours (ERα positive, PR positive, Her2 negative), double crosslinking, against matched IgG pull-downs; settings: remark: other sources report otherwise
[3] = target: T1, Estrogen Receptor alpha (ERα) (human …); assay: affinity purification with mass spectrometry; qPLEX-RIME: endogenous ERα precipitated (sc-543, Protein A Dynabeads) from asynchronous MCF7 cells, single crosslinking with 1% FA, sonicated nuclei; TMT-10plex, MultiNotch MS3; five replicates against matched IgG controls; settings: remark: other sources report otherwise
[4] = target: Estrogen Receptor alpha (ERα) (human (endogenous in MCF7, human PDX tumours and human breast tumours)) (UniProt P03372); assay: affinity purification with mass spectrometry; qPLEX-RIME: endogenous ERα precipitated from MCF7 cells, double crosslinking (2 mM DSG then 1% FA), compared with single crosslinking
[5] = substrate: CBP (CREB-binding protein) (human (endogenous in MCF7, human PDX tumours and human breast tumours)) (UniProt Q92793); assay: affinity purification with mass spectrometry; qPLEX-RIME: endogenous CBP precipitated (Diagenode C15410224) from MCF7 cells, double crosslinking (DSG, FA), against IgG controls
[6] = target: Estrogen Receptor alpha (ERα) (human (endogenous in MCF7, human PDX tumours and human breast tumours)) (UniProt P03372); assay: affinity purification with mass spectrometry; qPLEX-RIME: endogenous ERα precipitated (sc-543, Protein A Dynabeads) from asynchronous MCF7 cells, single crosslinking with 1% FA, sonicated nuclei; TMT-10plex, MultiNotch MS3; five replicates against matched IgG controls
[7] = target: Estrogen Receptor alpha (ERα) (human (endogenous in MCF7, human PDX tumours and human breast tumours)) (UniProt P03372); assay: affinity purification with mass spectrometry; qPLEX-RIME: endogenous ERα precipitated from MCF7 cells treated with vehicle (ethanol, 24 h) or 100 nM OHT for 2 h, 6 h and 24 h, double crosslinking, 3 x 10plex, against IgG controls; values corrected for the amount of ERα
[8] = target: Estrogen Receptor alpha (ERα) (human (endogenous in MCF7, human PDX tumours and human breast tumours)) (UniProt P03372); assay: affinity purification with mass spectrometry; qPLEX-RIME: endogenous ERα precipitated from cryosections (30 µm) of three ER positive human PDX tumours (HCI-003, HCI-005, HCI-006), double crosslinking, against matched IgG pull-downs

B1: FOXA1, P55317 1-472 (protein)
chain: MLGTVKMEGHETSDWNSYYADTQEAYSSVPVSNMNSGLGSMNSMNTYMTMNTMTTSGNMTPASFNMSYANPGLGAGLSPGAVAGMPGGSAGAMNSMTAAGVTAMGTALSPSGMGAMGAQQAASMNGLGPYAAAMNPCMSPMAYAPSNLGRSRAGGGGDAKTFKRSYPHAKPPYSYISLITMAIQQAPSKMLTLSEIYQWIMDLFPYYRQNQQRWQNSIRHSLSFNDCFVKVARSPDKPGKGSYWTLHPDSGNMFENGCYLRRQKRFKCEKQPGAGGGGGSGSGGSGAKGGPESRKDPSGASNPSADSPLHRGVHGKTGQLEGAPAPGPAASPQTLDHSGATATGGASELKTPASSTAPPISSGPGALASVPASHPAHGLAPHESQLHLKGDPHYSFNHPFSINNLMSSSEQQHKLDFKAYEQALQYSPYGSTLPASLPLGSASVTTRSPIEPSALEPAYYQGVYSRPVLNTS
- binding [1]: binds
- binding [2]: binds
- binding [3]: binds

B2: FOXK1, P85037 1-733 (protein)
chain: MAEVGEDSGARALLALRSAPCSPVLCAAAAAAAFPAAAPPPAPAQPQPPPGPPPPPPPPLPPGAIAGAGSSGGSSGVSGDSAVAGAAPALVAAAAASVRQSPGPALARLEGREFEFLMRQPSVTIGRNSSQGSVDLSMGLSSFISRRHLQLSFQEPHFYLRCLGKNGVFVDGAFQRRGAPALQLPKQCTFRFPSTAIKIQFTSLYHKEEAPASPLRPLYPQISPLKIHIPEPDLRSMVSPVPSPTGTISVPNSCPASPRGAGSSSYRFVQNVTSDLQLAAEFAAKAASEQQADTSGGDSPKDESKPPFSYAQLIVQAISSAQDRQLTLSGIYAHITKHYPYYRTADKGWQNSIRHNLSLNRYFIKVPRSQEEPGKGSFWRIDPASEAKLVEQAFRKRRQRGVSCFRTPFGPLSSRSAPASPTHPGLMSPRSGGLQTPECLSREGSPIPHDPEFGSKLASVPEYRYSQSAPGSPVSAQPVIMAVPPRPSSLVAKPVAYMPASIVTSQQPAGHAIHVVQQAPTVTMVRVVTTSANSANGYILTSQGAAGGSHDAAGAAVLDLGSEARGLEEKPTIAFATIPAAGGVIQTVASQMAPGVPGHTVTILQPATPVTLGQHHLPVRAVTQNGKHAVPTNSLAGNAYALTSPLQLLATQASSSAPVVVTRVCEVGPKEPAAAVAATATTTPATATTASASASSTGEPEVKRSRVEEPSGAVTTPAGVIAAAGPQGPGTGE
- binding [3]: binds

B3: NR2F2 (protein, UniProt P24468 1-414)
chain: MAMVVSTWRDPQDEVPGSQGSQASQAPPVPGPPPGAPHTPQTPGQGGPASTPAQTAAGGQGGPGGPGSDKQQQQQHIECVVCGDKSSGKHYGQFTCEGCKSFFKRSVRRNLSYTCRANRNCPIDQHHRNQCQYCRLKKCLKVGMRREAVQRGRMPPTQPTHGQFALTNGDPLNCHSYLSGYISLLLRAEPYPTSRFGSQCMQPNNIMGIENICELAARMLFSAVEWARNIPFFPDLQITDQVALLRLTWSELFVLNAAQCSMPLHVAPLLAAAGLHASPMSADRVVAFMDHIRIFQEQVEKLKALHVDSAEYSCLKAIVLFTSDACGLSDVAHVESLQEKSQCALEEYVRSQYPNQPTRFGKLLLRLPSLRTVSSSVIEQLFFVRLVGKTPIETLIRDMLLSGSSFNWPYMAIQ
- binding [4]: binds

B4: transcription factor JunB (protein, UniProt P17275 1-347)
chain: MCTKMEQPFYHDDSYTATGYGRAPGGLSLHDYKLLKPSLAVNLADPYRSLKAPGARGPGPEGGGGGSYFSGQGSDTGASLKLASSELERLIVPNSNGVITTTPTPPGQYFYPRGGGSGGGAGGAGGGVTEEQEGFADGFVKALDDLHKMNHVTPPNVSLGATGGPPAGPGGVYAGPEPPPVYTNLSSYSPASASSGGAGAAVGTGSSYPTTTISYLPHAPPFAGGHPAQLGLGRGASTFKEEPQTVPEARSRDATPPVSPINMEDQERIKVERKRLRNRLAATKCRKRKLERIARLEDKVKTLKAENAGLSSTAGLLREQVAQLKQKVMTHVSNGCQLLLGVKGHAF
- binding [5]: binds

B5: NRIP1 (RIP140) (protein, UniProt P48552 1-1158)
chain: MTHGEELGSDVHQDSIVLTYLEGLLMHQAAGGSGTAVDKKSAGHNEEDQNFNISGSAFPTCQSNGPVLNTHTYQGSGMLHLKKARLLQSSEDWNAAKRKRLSDSIMNLNVKKEALLAGMVDSVPKGKQDSTLLASLLQSFSSRLQTVALSQQIRQSLKEQGYALSHDSLKVEKDLRCYGVASSHLKTLLKKSKVKDQKPDTNLPDVTKNLIRDRFAESPHHVGQSGTKVMSEPLSCAARLQAVASMVEKRASPATSPKPSVACSQLALLLSSEAHLQQYSREHALKTQNANQAASERLAAMARLQENGQKDVGSYQLPKGMSSHLNGQARTSSSKLMASKSSATVFQNPMGIIPSSPKNAGYKNSLERNNIKQAANNSLLLHLLKSQTIPKPMNGHSHSERGSIFEESSTPTTIDEYSDNNPSFTDDSSGDESSYSNCVPIDLSCKHRTEKSESDQPVSLDNFTQSLLNTWDPKVPDVDIKEDQDTSKNSKLNSHQKVTLLQLLLGHKNEENVEKNTSPQGVHNDVSKFNTQNYARTSVIESPSTNRTTPVSTPPLLTSSKAGSPINLSQHSLVIKWNSPPYVCSTQSEKLTNTASNHSMDLTKSKDPPGEKPAQNEGAQNSATFSASKLLQNLAQCGMQSSMSVEEQRPSKQLLTGNTDKPIGMIDRLNSPLLSNKTNAVEENKAFSSQPTGPEPGLSGSEIENLLERRTVLQLLLGNPNKGKSEKKEKTPLRDESTQEHSERALSEQILMVKIKSEPCDDLQIPNTNVHLSHDAKSAPFLGMAPAVQRSAPALPVSEDFKSEPVSPQDFSFSKNGLLSRLLRQNQDSYLADDSDRSHRNNEMALLESKNLCMVPKKRKLYTEPLENPFKKMKNNIVDAANNHSAPEVLYGSLLNQEELKFSRNDLEFKYPAGHGSASESEHRSWARESKSFNVLKQLLLSENCVRDLSPHRSNSVADSKKKGHKNNVTNSKPEFSISSLNGLMYSSTQPSSCMDNRTFSYPGVVKTPVSPTFPEHLGCAGSRPESGLLNGCSMPSEKGPIKWVITDAEKNEYEKDSPRLTKTNPILYYMLQKGGNSVTSRETQDKDIWREASSAESVSQVTAKEELLPTAETKASFFNLRSPYNSHMGNNASRPHSANGEVYGLLGSVLTIKKESE
- binding [6]: binds
- binding [7]: binds

B6: TRIM24 (protein, UniProt O15164 1-1050)
chain: MEVAVEKAVAAAAAASAAASGGPSAAPSGENEAESRQGPDSERGGEAARLNLLDTCAVCHQNIQSRAPKLLPCLHSFCQRCLPAPQRYLMLPAPMLGSAETPPPVPAPGSPVSGSSPFATQVGVIRCPVCSQECAERHIIDNFFVKDTTEVPSSTVEKSNQVCTSCEDNAEANGFCVECVEWLCKTCIRAHQRVKFTKDHTVRQKEEVSPEAVGVTSQRPVFCPFHKKEQLKLYCETCDKLTCRDCQLLEHKEHRYQFIEEAFQNQKVIIDTLITKLMEKTKYIKFTGNQIQNRIIEVNQNQKQVEQDIKVAIFTLMVEINKKGKALLHQLESLAKDHRMKLMQQQQEVAGLSKQLEHVMHFSKWAVSSGSSTALLYSKRLITYRLRHLLRARCDASPVTNNTIQFHCDPSFWAQNIINLGSLVIEDKESQPQMPKQNPVVEQNSQPPSGLSSNQLSKFPTQISLAQLRLQHMQQQVMAQRQQVQRRPAPVGLPNPRMQGPIQQPSISHQQPPPRLINFQNHSPKPNGPVLPPHPQQLRYPPNQNIPRQAIKPNPLQMAFLAQQAIKQWQISSGQGTPSTTNSTSSTPSSPTITSAAGYDGKAFGSPMIDLSSPVGGSYNLPSLPDIDCSSTIMLDNIVRKDTNIDHGQPRPPSNRTVQSPNSSVPSPGLAGPVTMTSVHPPIRSPSASSVGSRGSSGSSSKPAGADSTHKVPVVMLEPIRIKQENSGPPENYDFPVVIVKQESDEESRPQNANYPRSILTSLLLNSSQSSTSEETVLRSDAPDSTGDQPGLHQDNSSNGKSEWLDPSQKSPLHVGETRKEDDPNEDWCAVCQNGGELLCCEKCPKVFHLSCHVPTLTNFPSGEWICTFCRDLSKPEVEYDCDAPSHNSEKKKTEGLVKLTPIDKRKCERLLLFLYCHEMSLAFQDPVPLTVPDYYKIIKNPMDLSTIKKRLQEDYSMYSKPEDFVADFRLIFQNCAEFNEPDSEVANAGIKLENYFEELLKNLYPEKRFPKPEFRNESEDNKFSDDSDDDFVQPRKKRLKSIEERQLLK
- binding [6]: binds

B7: NCOA5 (CIA) (protein, UniProt Q9HCD5 1-579)
chain: MNTAPSRPSPTRRDPYGFGDSRDSRRDRSPIRGSPRREPRDGRNGRDARDSRDIRDPRDLRDHRHSRDLRDHRDSRSVRDVRDVRDLRDFRDLRDSRDFRDQRDPMYDRYRDMRDSRDPMYRREGSYDRYLRMDDYCRRKDDSYFDRYRDSFDGRGPPGPESQSRAKERLKREERRREELYRQYFEEIQRRFDAERPVDCSVIVVNKQTKDYAESVGRKVRDLGMVVDLIFLNTEVSLSQALEDVSRGGSPFAIVITQQHQIHRSCTVNIMFGTPQEHRNMPQADAMVLVARNYERYKNECREKEREEIARQAAKMADEAILQERERGGPEEGVRGGHPPAIQSLINLLADNRYLTAEETDKIINYLRERKERLMRSSTDSLPGPISRQPLGATSGASLKTQPSSQPLQSGQVLPSATPTPSAPPTSQQELQAKILSLFNSGTVTANSSSASPSVAAGNTPNQNFSTAANSQPQQRSQASGNQPPSILGQGGSAQNMGPRPGAPSQGLFGQPSSRLAPASNMTSQRPVSSTGINFDNPSVQKALDTLIQSGPALSHLVSQTTAQMGQPQAPMGSYQRHY
- binding [8]: binds

No constants are given. Whether binding was seen depends on the method and setting. Binding seen in cells or lysates may run through a third protein. These calls come from enrichment with a bait or labelling near it, and not all partners need be listed.
